{"source": "PubChem BioAssay AID1224828 (NIAID, 2016)", "assay": "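Find genes required for NF-kappaB p65 moving into the nucleus after LPS in mouse macrophages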 (primary screen)", "cells": "mouse RAW264.7 G9 macrophage reporter cells (GFP-p65, Tnf promoter-mCherry)", "reagents": "siRNA pool against mouse genes, 100 nM", "timing": "2 days siRNA transfection, then 40 min LPS before fixation", "challenge": "LPS (Salmonella minnesota R595) at 10 ng/ml", "read-out": "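Microscopy ratio of nuclear to perinuclear-ring GFP-p65 signal, scaled to the plate median; gene score is the average of two replicate robust z-scores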", "scale": "p65 translocation robust z-score: higher = more nuclear NF-kappaB p65 after LPS than the plate median; nuclear/cytoplasmic p65 ratio: higher = more nuclear NF-kappaB p65", "hit rule": "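Active if robust z is above 3.3 (negative regulators) or below -1.56, the Tlr4 control median (positive regulators); activity score 50 or more; control wells not called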", "calls": "active = hit (p65 shift raised or lowered); inactive = no clear change", "note": "The whole screen tested about 17,000 reagents; this is a random part of them. Of all reagents, 762 (4.5%) got an active call. 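Active calls include both raised and lowered p65 entry, mostly lowered; wells with fewer than 50 cells lack a z-score.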 Raw values are not corrected between plates."}
{"gene symbol":"Irf4","p65 translocation robust z-score":-0.11,"nuclear/cytoplasmic p65 ratio, rep 1":1.46,"nuclear/cytoplasmic p65 ratio, rep 2":1.37,"low cell count flag":"enough cells to score","outcome":"inactive"}
{"gene symbol":"Smurf2","p65 translocation robust z-score":0.88,"nuclear/cytoplasmic p65 ratio, rep 1":1.63,"nuclear/cytoplasmic p65 ratio, rep 2":1.86,"low cell count flag":"enough cells to score","outcome":"inactive"}
{"gene symbol":"Rgs18","p65 translocation robust z-score":0.19,"nuclear/cytoplasmic p65 ratio, rep 1":1.39,"nuclear/cytoplasmic p65 ratio, rep 2":1.29,"low cell count flag":"enough cells to score","outcome":"inactive"}
{"gene symbol":"St6gal1","p65 translocation robust z-score":-0.98,"nuclear/cytoplasmic p65 ratio, rep 1":1.33,"nuclear/cytoplasmic p65 ratio, rep 2":1.5,"low cell count flag":"enough cells to score","outcome":"inactive"}
{"gene symbol":"Zfy2","nuclear/cytoplasmic p65 ratio, rep 1":1.84,"nuclear/cytoplasmic p65 ratio, rep 2":1.06,"low cell count flag":"fewer than 50 cells per well; well left out of scoring","outcome":"inactive"}
{"gene symbol":"Cd83","p65 translocation robust z-score":1.24,"nuclear/cytoplasmic p65 ratio, rep 1":1.52,"nuclear/cytoplasmic p65 ratio, rep 2":1.53,"low cell count flag":"enough cells to score","outcome":"inactive"}
{"gene symbol":"Cfap206","p65 translocation robust z-score":-0.56,"nuclear/cytoplasmic p65 ratio, rep 1":1.33,"nuclear/cytoplasmic p65 ratio, rep 2":1.33,"low cell count flag":"enough cells to score","outcome":"inactive"}
{"gene symbol":"Fibcd1","p65 translocation robust z-score":0.12,"nuclear/cytoplasmic p65 ratio, rep 1":1.59,"nuclear/cytoplasmic p65 ratio, rep 2":1.74,"low cell count flag":"enough cells to score","outcome":"inactive"}
{"gene symbol":"Vdac1","nuclear/cytoplasmic p65 ratio, rep 1":1.3,"nuclear/cytoplasmic p65 ratio, rep 2":1.1,"low cell count flag":"fewer than 50 cells per well; well left out of scoring","outcome":"inactive"}
{"gene symbol":"Plxna4","nuclear/cytoplasmic p65 ratio, rep 1":1.19,"nuclear/cytoplasmic p65 ratio, rep 2":1.62,"low cell count flag":"fewer than 50 cells per well; well left out of scoring","outcome":"inactive"}
{"gene symbol":"Nanp","p65 translocation robust z-score":-0.61,"nuclear/cytoplasmic p65 ratio, rep 1":1.47,"nuclear/cytoplasmic p65 ratio, rep 2":1.58,"low cell count flag":"enough cells to score","outcome":"inactive"}
{"gene symbol":"Sult1e1","p65 translocation robust z-score":-0.23,"nuclear/cytoplasmic p65 ratio, rep 1":1.53,"nuclear/cytoplasmic p65 ratio, rep 2":1.51,"low cell count flag":"enough cells to score","outcome":"inactive"}
{"gene symbol":"Spo11","p65 translocation robust z-score":1.22,"nuclear/cytoplasmic p65 ratio, rep 1":1.65,"nuclear/cytoplasmic p65 ratio, rep 2":1.8,"low cell count flag":"enough cells to score","outcome":"inactive"}
{"gene symbol":"Fbxo22","p65 translocation robust z-score":0.19,"nuclear/cytoplasmic p65 ratio, rep 1":1.53,"nuclear/cytoplasmic p65 ratio, rep 2":1.36,"low cell count flag":"enough cells to score","outcome":"inactive"}
{"gene symbol":"Runx3","p65 translocation robust z-score":1.3,"nuclear/cytoplasmic p65 ratio, rep 1":1.73,"nuclear/cytoplasmic p65 ratio, rep 2":1.67,"low cell count flag":"enough cells to score","outcome":"inactive"}
{"gene symbol":"Rab22a","p65 translocation robust z-score":-0.56,"nuclear/cytoplasmic p65 ratio, rep 1":1.45,"nuclear/cytoplasmic p65 ratio, rep 2":1.31,"low cell count flag":"enough cells to score","outcome":"inactive"}
{"gene symbol":"Msantd5l","p65 translocation robust z-score":0.54,"nuclear/cytoplasmic p65 ratio, rep 1":1.29,"nuclear/cytoplasmic p65 ratio, rep 2":1.6,"low cell count flag":"enough cells to score","outcome":"inactive"}
{"gene symbol":"Zdhhc3","nuclear/cytoplasmic p65 ratio, rep 1":1.53,"nuclear/cytoplasmic p65 ratio, rep 2":1.03,"low cell count flag":"fewer than 50 cells per well; well left out of scoring","outcome":"inactive"}
{"gene symbol":"Pdik1l","nuclear/cytoplasmic p65 ratio, rep 1":1.63,"nuclear/cytoplasmic p65 ratio, rep 2":1.21,"low cell count flag":"fewer than 50 cells per well; well left out of scoring","outcome":"inactive"}
{"gene symbol":"Cdc50b","p65 translocation robust z-score":-0.1,"nuclear/cytoplasmic p65 ratio, rep 1":1.4,"nuclear/cytoplasmic p65 ratio, rep 2":1.54,"low cell count flag":"enough cells to score","outcome":"inactive"}
{"gene symbol":"Ccdc80","p65 translocation robust z-score":0.05,"nuclear/cytoplasmic p65 ratio, rep 1":1.35,"nuclear/cytoplasmic p65 ratio, rep 2":1.52,"low cell count flag":"enough cells to score","outcome":"inactive"}
{"gene symbol":"Nfkb1","p65 translocation robust z-score":0.37,"nuclear/cytoplasmic p65 ratio, rep 1":1.53,"nuclear/cytoplasmic p65 ratio, rep 2":1.43,"low cell count flag":"enough cells to score","outcome":"inactive"}
{"gene symbol":"Rrbp1","p65 translocation robust z-score":-0.81,"nuclear/cytoplasmic p65 ratio, rep 1":1.31,"nuclear/cytoplasmic p65 ratio, rep 2":1.13,"low cell count flag":"enough cells to score","outcome":"inactive"}
{"gene symbol":"Lin28a","nuclear/cytoplasmic p65 ratio, rep 1":1.6,"nuclear/cytoplasmic p65 ratio, rep 2":1.41,"low cell count flag":"fewer than 50 cells per well; well left out of scoring","outcome":"inactive"}
{"gene symbol":"Ndufs7","p65 translocation robust z-score":-0.54,"nuclear/cytoplasmic p65 ratio, rep 1":1.71,"nuclear/cytoplasmic p65 ratio, rep 2":1.5,"low cell count flag":"enough cells to score","outcome":"inactive"}
{"gene symbol":"Pnoc","nuclear/cytoplasmic p65 ratio, rep 1":1.57,"nuclear/cytoplasmic p65 ratio, rep 2":1.16,"low cell count flag":"fewer than 50 cells per well; well left out of scoring","outcome":"inactive"}
{"gene symbol":"Etv4","p65 translocation robust z-score":0.14,"nuclear/cytoplasmic p65 ratio, rep 1":1.47,"nuclear/cytoplasmic p65 ratio, rep 2":1.39,"low cell count flag":"enough cells to score","outcome":"inactive"}

In a second layout: entries from further up.
Lin28a
- nuclear/cytoplasmic p65 ratio, rep 1: 1.6
- nuclear/cytoplasmic p65 ratio, rep 2: 1.41
- low cell count flag: fewer than 50 cells per well; well left out of scoring
- outcome: inactive

Ndufs7
- p65 translocation robust z-score: -0.54
- nuclear/cytoplasmic p65 ratio, rep 1: 1.71
- nuclear/cytoplasmic p65 ratio, rep 2: 1.5
- low cell count flag: enough cells to score
- outcome: inactive

Pnoc
- nuclear/cytoplasmic p65 ratio, rep 1: 1.57
- nuclear/cytoplasmic p65 ratio, rep 2: 1.16
- low cell count flag: fewer than 50 cells per well; well left out of scoring
- outcome: inactive

Etv4
- p65 translocation robust z-score: 0.14
- nuclear/cytoplasmic p65 ratio, rep 1: 1.47
- nuclear/cytoplasmic p65 ratio, rep 2: 1.39
- low cell count flag: enough cells to score
- outcome: inactive
